PubChem BioAssay AID662 (National Center for Advancing Translational Sciences (NCATS), 2007)
This is one part of the list. These are further read-outs of the screen, such as a control signal, another cell line or another target. No call is given for them. The list favours compounds with an active or inconclusive main result. Words in brackets tell the shape of the fitted curve; partial curves, single points and poor fits give uncertain potencies.

Assay: Cell signaling CRE-BLA (Fsk stim)
Details: CHO CRE-bla reporter (cAMP response element driving beta-lactamase), forskolin EC10, beta-lactamase ratio; measured here: 460 nm blue channel
Procedure, shortened: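 CHO CRE-bla cells, overnight plating in Opti-MEM with 0.5% dialyzed FBS; cpd titration + EC10 NKH 477, 3 h 37 °C; CCF4 2 h RT; ex 405/em 460 vs 530 ratio → %Activity, AC50.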

Which AC50 does the source give for `CN(C)c1ccc(-c2nccc(NCc3cccs3)n2)cc1` here?
Its AC50 is 10 µM [rising, partial curve].

For `Cc1ccc(Cn2nnc3c(=O)[nH]c(C(=O)NCc4ccco4)nc32)cc1`, which AC50 is on record?
The AC50 was 12.6 µM [rising, single point].

With `Cc1cc(C)nc(-n2nc(C)cc2NC(=O)c2ccc(Br)o2)n1` as the compound, how does the AC50 read?
The AC50 was 1.26 µM [rising, full curve].

With `COc1cc(OC)c2c(C)cc(=O)oc2c1` as the compound, how does the AC50 read?
Its AC50 is 10 µM [rising, partial curve].

With `CC(C)N(Cc1nc(-c2ccc(Cl)cc2)no1)C(=O)CCCN1C(=O)c2ccccc2C1=O` as the compound, how does the AC50 read?
Its AC50 is 10 µM [falling, single point].

For `COC(=O)c1ccccc1NC(=O)C1CCN(S(=O)(=O)c2cc(C)ccc2OC)CC1`, which AC50 is on record?
Its AC50 is 15.8 µM [rising, partial curve].

For `Cn1c(=O)c2c(-c3ccccc3)n(N3CCOCC3)cc2n(C)c1=O`, which AC50 is on record?
Its AC50 is 1.26 µM [rising, partial curve].

With `CCn1c2ccccc2c2nnc(NCCCO)nc21` as the compound, how does the AC50 read?
The AC50 was 3.98 µM [rising, single point].

With `CCOC(=O)c1sc(NC(=O)c2ccc3ncsc3c2)nc1C` as the compound, how does the AC50 read?
The AC50 was 10 µM [rising, partial curve].

Which AC50 does the source give for `N=c1c(C(=O)NCc2ccc3c(c2)OCO3)cc2c(=O)n3ccccc3nc2n1Cc1cccnc1` here?
The AC50 was 12.6 µM [rising, partial curve].

With `Cc1cc(C)c(S(=O)(=O)NCC2CCC(C(=O)NCCCN3CCOCC3)CC2)c(C)c1` (stereo not drawn) as the compound, how does the AC50 read?
Its AC50 is 3.16 µM [falling, single point].

Which AC50 does the source give for `CCOc1ccc(C2C(C#N)=C(N)SC(N)=C2C#N)cc1OCC` here?
The AC50 was 7.94 µM [rising, partial curve].

With `CCOC(=O)Cc1csc(NC(=O)c2ccc(S(=O)(=O)N3CCCCC3)cc2)n1` as the compound, how does the AC50 read?
The AC50 was 1.26 µM [rising, full curve].

Which AC50 does the source give for `CCCn1c(=O)c2ccccc2n2c(SCCOc3ccccc3)nnc12` here?
Its AC50 is 10 µM [rising, partial curve].

With `CC(=O)c1cccc(NC(=O)C2CCCN(S(=O)(=O)c3ccccc3)C2)c1` (stereo not drawn) as the compound, how does the AC50 read?
Its AC50 is 0.00398 µM [falling, full curve, poor fit].

For `CCOC(=O)C1CCCN(CC(=O)Nc2c(C(=O)OC)[nH]c3ccccc23)C1` (stereo not drawn), which AC50 is on record?
The AC50 was 12.6 µM [rising, partial curve].

Which AC50 does the source give for `Cc1cccc(NC(=O)C2c3ccccc3C(=O)N3CCc4ccccc4C23)n1` (stereo not drawn) here?
The AC50 was 0.316 µM [falling, partial curve].

With `Cc1ccc(S(=O)(=O)CCC(=O)c2ccc(O)cc2O)cc1` as the compound, how does the AC50 read?
Its AC50 is 12.6 µM [falling, partial curve].

With `CCC1(c2ccccc2)C(=O)NCNC1=O` as the compound, how does the AC50 read?
The AC50 was 15.8 µM [falling, single point].

Which AC50 does the source give for `Cn1c(=O)c(CCc2ccccc2)nc2cnc(Nc3ccccc3)nc21` here?
Its AC50 is 3.16 µM [rising, full curve].

With `O=c1cc(-c2c(F)c(F)c(F)c(F)c2F)oc2c(F)c(F)c(F)c(F)c12` as the compound, how does the AC50 read?
Its AC50 is 5.01 µM [falling, full curve].

Which AC50 does the source give for `O=S(=O)(c1ccc(Br)c2nsnc12)N1CCOCC1` here?
The AC50 was 10 µM [falling, partial curve].

For `Cn1c(=O)cc(OCCCC(=O)Nc2ccccn2)c2ccccc21`, which AC50 is on record?
The AC50 was 25.1 µM [rising, single point].

With `Cc1ccc(N(C(=O)c2ccc(S(=O)(=O)N3CCOCC3)cc2)C2C=CS(=O)(=O)C2)cc1` (stereo not drawn) as the compound, how does the AC50 read?
Its AC50 is 0.0398 µM [falling, full curve, poor fit].

Which AC50 does the source give for `O=C(COC(=O)c1ccccc1NC(=O)c1ccco1)NCCC1=CCCCC1` here?
Its AC50 is 25.1 µM [rising, single point].

For `C=CCn1c(=O)[nH]c2cc(C(=O)N3CCN(c4cccc(Cl)c4)CC3)ccc2c1=O`, which AC50 is on record?
Its AC50 is 0.2 µM [rising, full curve].

Which AC50 does the source give for `COc1ccc(C2C3=C(CCCC3=O)Nc3nc(C(F)(F)F)nn32)cc1OC` (stereo not drawn) here?
The AC50 was 0.00794 µM [falling, full curve, poor fit].

With `COc1cc(OC)cc(-c2cc3nc(C)c(CCC(=O)O)c(C)n3n2)c1` as the compound, how does the AC50 read?
The AC50 was 12.6 µM [rising, partial curve].

Which AC50 does the source give for `O=c1c2c(nc3n1CCCCC3)sc1c(O)cccc12` here?
Its AC50 is 25.1 µM [rising, single point].

Which AC50 does the source give for `O=C(Nc1cccc2c1C(=O)NC2=O)c1ccc(S(=O)(=O)N2CCCC2)cc1` here?
Its AC50 is 10 µM [rising, partial curve].

Which AC50 does the source give for `CCn1c(CSc2nccn2C)nc2cc(C(=O)O)ccc21` here?
The AC50 was 20 µM [rising, single point].

With `COC(=O)[C@@]1(Cc2ccc(OC)cc2)[C@H]2c3cc(C(=O)N(C)C)n(Cc4nc5ccccc5[nH]4)c3C[C@H]2CN1C(=O)c1ccccc1` as the compound, how does the AC50 read?
The AC50 was 12.6 µM [rising, partial curve].

With `Cc1nc2cnc(N(C)C)nc2n(Cc2ccc(F)cc2)c1=O` as the compound, how does the AC50 read?
Its AC50 is 2.51 µM [rising, full curve].

For `O=C(COc1ccccc1)Nn1cnc2ccccc21`, which AC50 is on record?
The AC50 was 0.00501 µM [falling, full curve, poor fit].

Which AC50 does the source give for `COC(=O)c1ccccc1NC(=O)CN(C1CCCCC1)S(C)(=O)=O` here?
The AC50 was 2 µM [rising, full curve].

Which AC50 does the source give for `CCOc1ccc(C(N)=O)cc1OC` here?
Its AC50 is 0.00398 µM [falling, full curve, poor fit].

With `Cc1ccc(NC(=O)CSc2nnc(-c3ccccc3C)o2)cc1C` as the compound, how does the AC50 read?
The AC50 was 0.00398 µM [falling, full curve, poor fit].

For `CCOC(=O)c1c(C)oc2cc(Br)c(O)c(Br)c12`, which AC50 is on record?
The AC50 was 12.6 µM [rising, partial curve].

For `N#CCCn1c(=O)c(-c2cc(F)cc(F)c2)nc2cnc(Nc3ccccc3)nc21`, which AC50 is on record?
The AC50 was 1.26 µM [rising, full curve, poor fit].

With `O=C(NC12CC3CC(CC(C3)C1)C2)c1cc2nc(-c3ccco3)cc(C(F)(F)F)n2n1` as the compound, how does the AC50 read?
The AC50 was 3.98 µM [rising, full curve].

For `COC(=O)C1=C(C)N(c2ccc(F)cc2)C(=O)C1`, which AC50 is on record?
Its AC50 is 10 µM [falling, partial curve].

Which AC50 does the source give for `O=C(Nc1nc2c(s1)CCc1ccccc1-2)c1cccs1` here?
The AC50 was 25.1 µM [rising, single point].

With `COc1ccc(N(CC(=O)Nc2ccc3c(c2)OCCO3)S(=O)(=O)c2c(C)noc2C)cc1` as the compound, how does the AC50 read?
The AC50 was 0.0794 µM [rising, full curve, poor fit].
